Screening data, single-dose tests

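Whole-parasite assay of Trypanosoma brucei over 72 hours; the read-out is not stated. Tested at 30 µM. The record gives no direction; compounds that gave an IC50 in retests scored well above the rest, so higher reads as stronger inhibition. Values scatter widely below zero; nearly all retest evidence comes from the higher of the two concentrations used. About 64,000 compounds were tested under these conditions; 1.5% (about 940) showed 50% or more at least once.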

The filed quantity is “Percent Effect” (%).
The controls that fix the scale are not given in the record; negative values are as filed.
Compounds were drawn at random from those tested, without regard to their results.

| # | structure | Percent Effect |
|---|---|---|
| 1 | `CCC(OC)C(=O)N1CCc2nc(NC)nc(C(=O)N3CCCC3)c2C1` (configuration not stated) | -7.421 |
| 2 | `Cc1nc[nH]c1CN1CCC(C2CCN(CCc3ccccc3)C2)CC1` (configuration not stated) | -16.35 |
| 3 | `N#Cc1cc(F)ccc1Cn1cnc(C2CCC2)cc1=O` | -18.05 |
| 4 | `O=C(C1CCCC1)N1CCC(C(O)c2ccc(F)cc2)CC1` (configuration not stated) | 11.72 |
| 5 | `COc1ccc(CC(=O)N2Cc3nccn3CC(CN(C)C)C2)cc1.O=C(O)C(F)(F)F` (configuration not stated) | -47.37 |
| 6 | `CCc1nc(C2CCCN2C(=O)CCNS(C)(=O)=O)no1` (configuration not stated) | -11.51 |
| 7 | `Cc1nnc(SCCC(=O)N(C)Cc2c(F)cccc2Cl)[nH]1` | 0.8209 |
| 8 | `COc1cc(CNC(=O)Nc2nnc(C(F)(F)F)s2)ccc1O` | 27.1 |
| 9 | `CCC(CC)(CC(=O)OC)NC(=O)Nc1nnc(-c2ccccn2)s1` | 0.09791 |
| 10 | `CCOC(=O)[C@@H]1[C@@H](O)C(=O)N(C)C12CCN(C(=O)OC)CC2` | 43.8 |
| 11 | `Cc1ccnc(C2COCCN2C)n1` (configuration not stated) | -15.37 |
| 12 | `CCc1nc(C2CCCN2c2ncc(C(N)=O)cc2Cl)no1` (configuration not stated) | -39.92 |
| 13 | `N#Cc1ccc(CN(CCF)Cc2cccc(F)c2)cc1` | -22.47 |
| 14 | `O=C1CCCN1CCCN1CCCC(Cn2cncn2)C1` (configuration not stated) | -36.8 |
| 15 | `[H][C@@]12CN(CCN(C)C)C[C@]1([H])OCCN2Cc1cnn(C)c1` | -296.6 |
| 16 | `CN1CCC(N(C)CCC(=O)N2CCC(Oc3ccc(Cl)cc3)CC2)C1` (configuration not stated) | -101.8 |
| 17 | `CC(C)NC(=O)c1noc2c1CN(Cc1cnn(C)c1)CC2` | -5.512 |
| 18 | `Cc1ccc(C(=O)N2CC[C@H](Oc3cccnc3C)[C@@H](O)CC2)s1` | -31.64 |
| 19 | `O=C(O)C(F)(F)F.O=C(O)C(F)(F)F.[H][C@]12CCN(S(=O)(=O)CC)CC[C@@]1([H])S(=O)(=O)CCN2Cc1cccnc1` | -22.79 |
| 20 | `COc1ccc(NC(C)=O)cc1OCc1cccnc1` | -23.99 |
| 21 | `Fc1cnc(N2CCCC3(CCN(Cc4ccoc4)C3)C2)nc1.O=C(O)C(F)(F)F.O=C(O)C(F)(F)F` (configuration not stated) | 42.3 |
| 22 | `CCN1CC(C(=O)N(C)Cc2ccon2)CC1=O` (configuration not stated) | -1.882 |
| 23 | `Cc1nc(CN2CCCC(N(C)Cc3nc(C)c(C)o3)C2)no1` (configuration not stated) | 16.88 |
| 24 | `COCCn1ccnc1-c1[nH]cnc1C` | -13.53 |
| 25 | `CSCCCNC(=O)Nc1cccc(-c2nccn2C)c1` | 8.474 |
| 26 | `COCCCNC(=O)c1c(-n2cnnn2)sc2c1CCC2` | -2.922 |
| 27 | `CCOc1ccccc1OC1CCN(Cc2ccn(C)c(=O)c2)CC1` | -43.93 |
| 28 | `CC(=O)N1CCN(C(=O)NC(C)C)CC2(CNC(=O)C2)C1` (configuration not stated) | -35.74 |
| 29 | `Cc1cc(OC(F)F)c(C(=O)NCC(O)c2cccc(F)c2)s1` (configuration not stated) | 3.095 |
| 30 | `CN1CCN(C2COC3(CCN(CC4CC4)CC3)C2)CC1.O=C(O)C(F)(F)F.O=C(O)C(F)(F)F.O=C(O)C(F)(F)F` (configuration not stated) | -49.24 |
| 31 | `Cc1nnc(CN2CCN(Cc3nccn3C)CC2)n1C` | -40.25 |
| 32 | `CC[C@H](C)[C@H](NC(=O)c1ccc(-n2cnnn2)cc1)C(=O)OC` | -30.56 |
| 33 | `CCOCc1nc2c(c(N(C)Cc3snnc3C)n1)CCNCC2` | -24.85 |
| 34 | `COc1ccc(N2CCN(C(=O)COc3c(C)occc3=O)CC2)cc1` | -8.117 |
| 35 | `c1ccn2c(C3CCCN3Cc3nc(C4CC4)no3)nnc2c1` (configuration not stated) | -35.18 |
| 36 | `[H][C@@]12CN(C(=O)c3ccc(C)nc3)C[C@]1([H])OCCN2C(C)C` | 13.66 |
| 37 | `COc1ccc(C(O)CNC(=O)NCc2c(C)cc(C)[nH]c2=O)cc1` (configuration not stated) | 20.89 |
| 38 | `[H][C@@]12CCN(C(C)=O)[C@]1([H])C(=O)N(Cc1ccccc1)C(=O)N2` | -27.64 |
| 39 | `Cc1nc(CC(=O)N2CCOC(c3nc(C(C)(C)C)n[nH]3)C2)cs1` (configuration not stated) | -28.5 |
| 40 | `Cc1nc(CN2CCC3(CCCN(Cc4ccncc4)C3)C2=O)cs1.O=C(O)C(F)(F)F.O=C(O)C(F)(F)F.O=C(O)C(F)(F)F` (configuration not stated) | -9.469 |
| 41 | `CCN(CC)C(=O)[C@@H]1C[C@@H](N)CN1C(=O)c1cc2c([nH]c1=O)CCC2` | -33.48 |
| 42 | `CCCn1ccc(C(=O)Nc2ccc3c(c2)C(C)(C)C(=O)N3C)n1` | -63.39 |
| 43 | `Cc1c(C(=O)NC2=NCCS2)cnn1-c1ccc(Cl)cc1` | -19.33 |
| 44 | `Cc1cc(C)n2cc(CN3CCCC3Cn3nc(C)nc3C)nc2n1` (configuration not stated) | 0.448 |
| 45 | `Cc1nc(CN2CCN(c3cncc(Cl)n3)CC2)no1` | -41.83 |
| 46 | `O=C(Nc1ccnc(OC2CCOC2)c1)c1ccccc1Cl` (configuration not stated) | -30.23 |
| 47 | `CC(C)c1cc(NCc2csc(C(C)C)n2)nc(N)n1` | -47.9 |
| 48 | `COCCc1noc(-c2ccc(=O)[nH]c2)n1` | -6.542 |
| 49 | `CC(=O)N1CCCN(C(=O)c2ccc(=O)n(C)c2)c2ccccc21` | -14.08 |
| 50 | `Cc1c(C)n(CC(O)CN2CCCCCC2)c2c(Cl)cccc12` (configuration not stated) | -13.17 |
| 51 | `CN(C)c1ccc(C(=O)N2CCCCC2CC(N)=O)c(F)c1` (configuration not stated) | 7.246 |

Source: ChEMBL document CHEMBL3988442, “University of Dundee, Small-Polar-MMV Screening Library” (2021).